# Source: the supplement of paper PMC4604168 (melanoma cell lines)
# The other results are listed elsewhere or left out. Single values are uncertain, as repeats are few or missing.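 Imaging used 1,536-well plates; nuclei positive for cleaved PARP by antibody were divided by total DNA-stained nuclei to yield the apoptosis fraction. Doses for screening kept most cells viable, and cell lines differ markedly in resting and induced cleaved-PARP levels.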
# Tests used:
# Experiment in all cases: cleaved PARP positive nuclei fraction relative to DMSO control; melanoma cells; higher = more apoptosis
# Settings in all cases: library dose: low library concentration; 72 h
# [1] = tested on: MZ2-MEL
# [2] = tested on: MeWo
# [3] = tested on: RPMI7951
# [4] = tested on: RVH-421
# [5] = tested on: SkMel28
# [6] = tested on: SkMel2
# [7] = tested on: SkMel30
# [8] = tested on: UACC62
# [9] = tested on: WM115
# [10] = tested on: WM1716
# [11] = tested on: WM1745
# [12] = tested on: WM3526
# [13] = tested on: WM3619
# [14] = tested on: WM451Lu
Structure (SMILES),cleaved PARP positive nuclei fraction [1],cleaved PARP positive nuclei fraction [2],cleaved PARP positive nuclei fraction [3],cleaved PARP positive nuclei fraction [4],cleaved PARP positive nuclei fraction [5],cleaved PARP positive nuclei fraction [6],cleaved PARP positive nuclei fraction [7],cleaved PARP positive nuclei fraction [8],cleaved PARP positive nuclei fraction [9],cleaved PARP positive nuclei fraction [10],cleaved PARP positive nuclei fraction [11],cleaved PARP positive nuclei fraction [12],cleaved PARP positive nuclei fraction [13],cleaved PARP positive nuclei fraction [14]
"C[C@@H](N)c1ccc(C(=O)Nc2ccnc3[nH]ccc23)cc1 + Cn1cnc2c(F)c(Nc3ccc(Br)cc3Cl)c(C(=O)NOCCO)cc21 [selumetinib] (first compound 0.4 µM, partner dose 0.015 µM)",274%,555%,109%,324%,257%,68.2%,306%,108%,82.8%,116%,112%,70.2%,120%,157%
"CC(=O)O[C@@]12CO[C@@H]1C[C@H](O)[C@@]1(C)C(=O)[C@H](O)C3=C(C)[C@@H](OC(=O)[C@H](O)[C@@H](NC(=O)OC(C)(C)C)c4ccccc4)C[C@@](O)([C@@H](OC(=O)c4ccccc4)[C@H]21)C3(C)C [Docetaxel] + CS(=O)(=O)CCNCc1ccc(-c2ccc3ncnc(Nc4ccc(OCc5cccc(F)c5)c(Cl)c4)c3c2)o1 [lapatinib] (first compound 0.0001 µM, partner dose 0.8 µM)",582%,1140%,294%,216%,449%,493%,435%,55.3%,363%,74.2%,202%,151%,168%,93.7%
"CC(=O)O[C@@]12CO[C@@H]1C[C@H](O)[C@@]1(C)C(=O)[C@H](O)C3=C(C)[C@@H](OC(=O)[C@H](O)[C@@H](NC(=O)OC(C)(C)C)c4ccccc4)C[C@@](O)([C@@H](OC(=O)c4ccccc4)[C@H]21)C3(C)C [Docetaxel] + C[C@@H](Oc1cc(-c2cnn(C3CCNCC3)c2)cnc1N)c1c(Cl)ccc(F)c1Cl [Crizotinib] (first compound 0.0001 µM, partner dose 0.2 µM)",701%,518%,219%,173%,777%,566%,164%,117%,328%,152%,141%,60%,148%,63.1%
"Cn1cnc2c(F)c(Nc3ccc(Br)cc3Cl)c(C(=O)NOCCO)cc21 [selumetinib] + Cc1nc(Nc2ncc(C(=O)Nc3c(C)cccc3Cl)s2)cc(N2CCN(CCO)CC2)n1 [dasatanib] (first compound 0.015 µM, partner dose 0.004 µM)",260%,139%,305%,193%,78.7%,165%,73.4%,247%,321%,34.1%,117%,55.1%,127%,81%
"CS(=O)(=O)c1ccc(C(=O)Nc2ccc(Cl)c(-c3ccccn3)c2)c(Cl)c1 [vismodegib] + CNC(=O)c1cc(Oc2ccc(NC(=O)Nc3ccc(Cl)c(C(F)(F)F)c3)cc2)ccn1 [sorafenib] (first compound 1 µM, partner dose 0.4 µM)",109%,176%,260%,49.9%,155%,147%,31%,64.8%,169%,80.5%,112%,50.9%,81.2%,35.8%
"C[C@]1(O)C[C@@H](c2nc(-c3ccc4ccc(-c5ccccc5)nc4c3)c3c(N)nccn32)C1 + Nc1ncn([C@H]2C[C@H](O)[C@@H](CO)O2)c(=O)n1 [decitabine] (first compound 0.4 µM, partner dose 0.1 µM)",43.2%,167%,71.2%,150%,62.9%,53.9%,140%,87.7%,92.5%,93.9%,125%,43.7%,80.4%,184%
"COc1ccc(C2=N[C@@H](c3ccc(Cl)cc3)[C@@H](c3ccc(Cl)cc3)N2C(=O)N2CCNC(=O)C2)c(OC(C)C)c1 [Nutlin-3] + C[C@]1(O)C[C@@H](c2nc(-c3ccc4ccc(-c5ccccc5)nc4c3)c3c(N)nccn32)C1 [OSI906] (first compound 0.1 µM, partner dose 0.4 µM)",69.5%,102%,68.6%,46.8%,96.2%,230%,58.4%,149%,80.4%,105%,138%,60.9%,117%,120%
"Cn1cnc2c(F)c(Nc3ccc(Br)cc3Cl)c(C(=O)NOCCO)cc21 [selumetinib] + COc1ccc(C2=N[C@@H](c3ccc(Cl)cc3)[C@@H](c3ccc(Cl)cc3)N2C(=O)N2CCNC(=O)C2)c(OC(C)C)c1 [Nutlin-3] (first compound 0.015 µM, partner dose 0.1 µM)",183%,132%,47.2%,208%,79.1%,303%,127%,117%,124%,67.6%,92.7%,85.6%,142%,58.4%
"CS(=O)(=O)c1ccc(C(=O)Nc2ccc(Cl)c(-c3ccccn3)c2)c(Cl)c1 [vismodegib] + Nc1ccn([C@@H]2O[C@H](CO)[C@@H](O)C2(F)F)c(=O)n1 [gemcitabine] (first compound 1 µM, partner dose 0.0004 µM)",53.3%,119%,68.8%,20%,136%,84.8%,91.5%,64.5%,73.6%,55.9%,98.5%,82.6%,111%,20.1%
"Cn1cnc2c(F)c(Nc3ccc(Br)cc3Cl)c(C(=O)NOCCO)cc21 [selumetinib] + C[C@]1(c2nc3c(C(N)=O)cccc3[nH]2)CCCN1 [Veliparib] (first compound 0.015 µM, partner dose 1.4 µM)",67.4%,88.9%,45.8%,102%,116%,56.1%,118%,267%,153%,271%,103%,75.9%,109%,33.7%
"Cn1cnc2c(F)c(Nc3ccc(Br)cc3Cl)c(C(=O)NOCCO)cc21 [selumetinib] + CS(=O)(=O)c1ccc(C(=O)Nc2ccc(Cl)c(-c3ccccn3)c2)c(Cl)c1 [vismodegib] (first compound 0.015 µM, partner dose 1 µM)",137%,77%,164%,183%,144%,195%,306%,183%,164%,182%,108%,37.3%,124%,22.7%
"CCN(CC)CCNC(=O)c1c(C)[nH]c(/C=C2\C(=O)Nc3ccc(F)cc32)c1C [sunitinib] + Clc1ccc(Nc2nnc(Cc3ccncc3)c3ccccc23)cc1 [vatalanib] (first compound 0.4 µM, partner dose 2 µM)",97.6%,107%,89.6%,85%,376%,43%,148%,80.5%,152%,106%,189%,46.8%,95%,52.5%
"Cn1cnc2c(F)c(Nc3ccc(Br)cc3Cl)c(C(=O)NOCCO)cc21 [selumetinib] + Clc1ccc(Nc2nnc(Cc3ccncc3)c3ccccc23)cc1 [vatalanib] (first compound 0.015 µM, partner dose 2 µM)",351%,204%,81%,145%,42.6%,132%,46.5%,229%,143%,92.9%,91.6%,103%,92.6%,106%
"NC1(c2ccc(-c3nc4ccn5c(=O)[nH]nc5c4cc3-c3ccccc3)cc2)CCC1 + OCc1c[nH]c2ccccc12 [Indole-3-carbinol] (first compound 0.4 µM, partner dose 0.8 µM)",69.7%,93.9%,52.6%,134%,61.5%,81.5%,72.4%,87.7%,97.5%,52.9%,98.9%,225%,102%,94%
"CCN(CC)CCNC(=O)c1c(C)[nH]c(/C=C2\C(=O)Nc3ccc(F)cc32)c1C [sunitinib] + CN1CCN(c2ccc3nc(-c4c(N)c5c(F)cccc5[nH]c4=O)[nH]c3c2)CC1 [Dovitinib] (first compound 0.4 µM, partner dose 0.1 µM)",108%,104%,82.6%,261%,105%,98.7%,143%,210%,34.3%,93%,129%,105%,111%,63.4%
"CC(=O)O[C@@]12CO[C@@H]1C[C@H](O)[C@@]1(C)C(=O)[C@H](O)C3=C(C)[C@@H](OC(=O)[C@H](O)[C@@H](NC(=O)OC(C)(C)C)c4ccccc4)C[C@@](O)([C@@H](OC(=O)c4ccccc4)[C@H]21)C3(C)C [Docetaxel] + Cn1nnc2c(C(N)=O)ncn2c1=O [temozolomide] (first compound 0.0001 µM, partner dose 2 µM)",679%,816%,276%,98.8%,261%,1120%,709%,369%,762%,214%,192%,463%,160%,162%
"COc1ccc(C2=N[C@@H](c3ccc(Cl)cc3)[C@@H](c3ccc(Cl)cc3)N2C(=O)N2CCNC(=O)C2)c(OC(C)C)c1 [Nutlin-3] + Cn1c(Nc2ccc(C(F)(F)F)cc2)nc2cc(Oc3ccnc(-c4ncc(C(F)(F)F)[nH]4)c3)ccc21 [CHIR265] (first compound 0.1 µM, partner dose 0.08 µM)",31.8%,266%,202%,137%,259%,247%,124%,241%,361%,82.8%,130%,57.1%,132%,32.1%
"CN(c1ncccc1CNc1nc(Nc2ccc3c(c2)CC(=O)N3)ncc1C(F)(F)F)S(C)(=O)=O + OCc1c[nH]c2ccccc12 [Indole-3-carbinol] (first compound 0.08 µM, partner dose 0.8 µM)",49.6%,133%,231%,676%,210%,107%,451%,193%,127%,58.9%,114%,315%,119%,156%

# Full records as entered above. Order of values: cleaved PARP positive nuclei fraction [1] | cleaved PARP positive nuclei fraction [2] | cleaved PARP positive nuclei fraction [3] | cleaved PARP positive nuclei fraction [4] | cleaved PARP positive nuclei fraction [5] | cleaved PARP positive nuclei fraction [6] | cleaved PARP positive nuclei fraction [7] | cleaved PARP positive nuclei fraction [8] | cleaved PARP positive nuclei fraction [9] | cleaved PARP positive nuclei fraction [10] | cleaved PARP positive nuclei fraction [11] | cleaved PARP positive nuclei fraction [12] | cleaved PARP positive nuclei fraction [13] | cleaved PARP positive nuclei fraction [14]
# CC(=O)O[C@@]12CO[C@@H]1C[C@H](O)[C@@]1(C)C(=O)[C@H](O)C3=C(C)[C@@H](OC(=O)[C@H](O)[C@@H](NC(=O)OC(C)(C)C)c4ccccc4)C[C@@](O)([C@@H](OC(=O)c4ccccc4)[C@H]21)C3(C)C [Docetaxel] + CS(=O)(=O)CCNCc1ccc(-c2ccc3ncnc(Nc4ccc(OCc5cccc(F)c5)c(Cl)c4)c3c2)o1 [lapatinib] (first compound 0.0001 µM, partner dose 0.8 µM) is listed as 582% | 1140% | 294% | 216% | 449% | 493% | 435% | 55.3% | 363% | 74.2% | 202% | 151% | 168% | 93.7%
# Cn1cnc2c(F)c(Nc3ccc(Br)cc3Cl)c(C(=O)NOCCO)cc21 [selumetinib] + Cc1nc(Nc2ncc(C(=O)Nc3c(C)cccc3Cl)s2)cc(N2CCN(CCO)CC2)n1 [dasatanib] (first compound 0.015 µM, partner dose 0.004 µM) is listed as 260% | 139% | 305% | 193% | 78.7% | 165% | 73.4% | 247% | 321% | 34.1% | 117% | 55.1% | 127% | 81%
